Z-score and AC50 data for 16 compounds are collected here from PubChem BioAssay (NCATS).

The experiment can be described thus: qHTS for identification of novel therapeutic agents for treatment of microphthalmiaassociated transcription factor (MiT) renal cell carcinoma (RCC) (AID 1963991). The note with it: CellTiter-Glo, 48 h; for z-score: stronger effect = lower value. The procedure, abridged:
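Viability of three TFE3-fusion renal carcinoma lines measured by CellTiter-Glo after 48 h treatment with each of 1912 compounds at 11 concentrations. Responses scaled between DMSO (100%) and empty wells (0%) before curve fitting.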
(In general: In qHTS, concentration-response curves come from the screen itself.)

[1] abbreviates: TFE3-RCC UOK109 viability, measured here: UOK109 Z-AUC.
Setting [2] is: TFE3-RCC viability, measured here: UOK124 Z-AUC.
Setting [3] is: TFE3-RCC viability, measured here: UOK124 cell viability.
[4] abbreviates: TFE3-RCC viability, measured here: UOK145 Z-AUC.
Setting [5] is: TFE3-RCC viability, measured here: UOK145 cell viability.

The list shows a part of the results. These are further read-outs of the screen, such as a control signal, another cell line or another target. No call is given for them. Compounds called inactive in the main read-out are mostly missing here. Potencies come from curve fits of mixed quality, noted in brackets.

Regarding `CC(C)C(=O)Oc1ccc(CO)cc1[C@H](CCN(C(C)C)C(C)C)c1ccccc1`, the z-score under setting [1] amounted to 0.0109, the z-score under setting [2] came to 0.147 and the z-score under setting [4] was -0.231. In addition, the AC50 – broadly, the midpoint of the concentration-response curve, whichever way the signal moves – under setting [3] was 14.8 µM [falling, partial curve, poor fit] and the AC50 under setting [5] is 20.9 µM [falling, partial curve, poor fit].

On to `CC(=O)SCC(Cc1ccccc1)C(=O)NCC(=O)OCc1ccccc1` (stereo not given), for which the z-score under setting [1] was -0.549, the z-score under setting [2] turned out to be 0.661 and the z-score under setting [4] was -0.344. For the same compound, the AC50 was 23.5 µM [falling, partial curve] under setting [3] and 2.64 µM [falling, full curve] under setting [5].

As to `CN(C)C(=O)[C@H](O)[C@H](Cc1ccccc1)NC(=O)c1cc2cc(Cl)ccc2[nH]1`, the z-score was -0.431 under setting [1], -0.175 under setting [2] and 0.371 under setting [4]. The AC50 by setting is: under setting [3], 2.35 µM [falling, partial curve, poor fit]; under setting [5], 14.8 µM [falling, partial curve].

Consider `C[C@]12CC[C@@H]3c4ccc(O)cc4CC[C@H]3[C@H]1CC[C@H]2O`, for which the z-score is, setting by setting: under setting [1], 0.138; under setting [2], 0.398; under setting [4], 0.188. For the same compound, the AC50 under setting [3] is 23.5 µM [falling, single point] and the AC50 under setting [5] is 26.4 µM [falling, single point].

Regarding `CC[C@H](Nc1ncnc2nc[nH]c12)c1nc2cccc(F)c2c(=O)n1-c1ccccc1`, the z-score is, setting by setting: under setting [1], -1.46; under setting [2], 2.04; under setting [4], 0.276. Also, the concentration at half-maximal activity (AC50) by setting is: under setting [3], 10.5 µM [falling, partial curve, poor fit]; under setting [5], 13.2 µM [falling, partial curve].

Turning to `CCOC(=O)N1CCN([N+]([O-])=NOc2cc(ON=[N+]([O-])N3CCN(C(=O)OCC)CC3)c([N+](=O)[O-])cc2[N+](=O)[O-])CC1`, the z-score reads like this: under setting [1], -0.0725; under setting [2], 0.201; under setting [4], 0.562. The AC50 under setting [3] is 26.4 µM [falling, single point] and the AC50 under setting [5] is 29.6 µM [falling, single point].

For the compound `COc1cc(C(=O)NS(=O)(=O)c2ccccc2C)ccc1Cc1cn(C)c2ccc(NC(=O)OC3CCCC3)cc12`, the z-score was 0.136 under setting [1], -1.55 under setting [2] and -0.51 under setting [4]. Moreover, the AC50 is 20.9 µM [falling, partial curve, poor fit] under setting [3] and 33.2 µM [falling, single point] under setting [5].

Regarding `C[C@@]12C(=O)OC(=O)[C@@]1(C)C1CCC2O1`, the z-score is -2.09 under setting [1], -1.01 under setting [2] and -0.206 under setting [4]. Also, the AC50 by setting is: under setting [3], 2.96 µM [falling, full curve]; under setting [5], 4.69 µM [falling, full curve].

With `CC(C)=CCCC(C)=CCCC(C)=CCSc1ccccc1C(=O)O`, the z-score is, setting by setting: under setting [1], 0.182; under setting [2], 0.697; under setting [4], 0.258. Also, the AC50 is 6.62 µM [falling, partial curve] under setting [3] and 11.8 µM [falling, partial curve] under setting [5].

With `CO[C@@]12[C@H](COC(N)=O)C3=C(C(=O)C(C)=C(N)C3=O)N1C[C@@H]1N[C@@H]12`, the z-score under setting [1] was determined as 0.122, the z-score under setting [2] is -0.478 and the z-score under setting [4] is -0.502. Moreover, the AC50 runs as follows: under setting [3], 16.6 µM [falling, partial curve]; under setting [5], 1.32 µM [falling, full curve].

Turning to `C=CC(=O)Nc1cc(NC(=O)c2ccc(C)c(NC(=O)c3ccno3)c2)cc(C(F)(F)F)c1`, the z-score was 0.0908 under setting [1], 0.281 under setting [2] and -0.311 under setting [4]. Also, the AC50 by setting is: under setting [3], 18.7 µM [falling, partial curve]; under setting [5], 23.5 µM [falling, single point].

In the case of `COc1cc(OC)cc(-c2ccc3ncc4ccc(=O)n(-c5ccc(N6CCNCC6)c(C(F)(F)F)c5)c4c3c2)c1`, the z-score under setting [1] was -0.295, the z-score under setting [2] is -0.773 and the z-score under setting [4] was -1.09. In addition, the AC50 by setting is: under setting [3], 16.6 µM [falling, partial curve]; under setting [5], 8.33 µM [falling, partial curve].

Regarding `COCC(=O)NCC=Cc1ccc2ncnc(Nc3ccc(Oc4ccc(C)nc4)c(C)c3)c2c1`, the z-score reads like this: under setting [1], -0.122; under setting [2], -0.345; under setting [4], 0.484. Also, the AC50 was 4.18 µM [falling, partial curve] under setting [3] and 26.4 µM [falling, single point] under setting [5].

Take `Cn1c(=O)c(Oc2ccc(F)cc2F)cc2cnc(NC3CCOCC3)nc21`: the z-score was 0.275 under setting [1], -0.0598 under setting [2] and 0.319 under setting [4]. Also, the AC50 is, setting by setting: under setting [3], 10.5 µM [falling, partial curve, poor fit]; under setting [5], 23.5 µM [falling, partial curve, poor fit].

`COc1ccc2c(c1)CC[C@@H](CN(C)CC(=O)O)[C@H]2c1ccccc1`: the z-score is 0.147 under setting [1], 0.047 under setting [2] and 0.0995 under setting [4]. For the same compound, the AC50 by setting is: under setting [3], 4.69 µM [falling, full curve]; under setting [5], 4.69 µM [falling, full curve].

As for `COC1CCC(C(=O)c2ccc3nc4c(cc3c2)CCCO4)CC1` (stereo not given), the z-score by setting is: under setting [1], 0.781; under setting [2], 0.144; under setting [4], 0.328. The AC50 is 20.9 µM [falling, partial curve] under setting [3] and 20.9 µM [falling, partial curve] under setting [5].
